Laboratory results reported in PMC11209018.
No constants are given. Whether binding was seen depends on the method and setting. In cells and extracts the contact can be indirect. Some entries that bind do so weakly or less than the wild type. Where a sequence is shown, tags or fusion partners need not be part of it.

Legend:
FOXK2-Flag Δ155–203 = molecular target: T1, FOXK2-Flag Δ155–203 (UniProt Q01167); test: co-IP; cells (BEAS-2B by the legend, HEK-293T by the methods) cotransfected for 48 h with FBXO24-V5 and FOXK2-Flag Wt or deletion plasmids; lysis Buffer A (PBS, 0.2% SDS, 0.05% Triton); anti-Flag M2 magnetic beads, RT, 30 min; immunoblot for FBXO24
T1 sequence: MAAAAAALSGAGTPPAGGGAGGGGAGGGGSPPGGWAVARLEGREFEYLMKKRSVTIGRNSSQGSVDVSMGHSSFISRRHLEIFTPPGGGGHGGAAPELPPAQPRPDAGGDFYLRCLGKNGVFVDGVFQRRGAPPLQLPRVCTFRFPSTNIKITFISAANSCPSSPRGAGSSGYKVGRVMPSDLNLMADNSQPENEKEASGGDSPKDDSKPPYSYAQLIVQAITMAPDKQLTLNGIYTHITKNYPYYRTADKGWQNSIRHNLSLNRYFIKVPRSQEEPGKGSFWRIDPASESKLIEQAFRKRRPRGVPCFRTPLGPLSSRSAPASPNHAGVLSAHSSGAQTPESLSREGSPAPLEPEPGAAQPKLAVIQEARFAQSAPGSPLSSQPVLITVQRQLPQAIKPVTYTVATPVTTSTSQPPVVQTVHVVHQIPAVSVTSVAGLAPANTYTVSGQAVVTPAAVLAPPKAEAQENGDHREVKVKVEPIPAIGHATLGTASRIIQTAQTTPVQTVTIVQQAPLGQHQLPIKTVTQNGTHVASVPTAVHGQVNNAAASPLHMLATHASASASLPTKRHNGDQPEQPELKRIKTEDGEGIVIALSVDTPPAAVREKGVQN

FOXK2-Flag (Wt) [1] = molecular target: FOXK2-Flag (Wt) (UniProt Q01167); test: as above
FOXK2-Flag Δ428–478 = molecular target: T2, FOXK2-Flag Δ428–478 (UniProt Q01167); test: as above
T2 sequence: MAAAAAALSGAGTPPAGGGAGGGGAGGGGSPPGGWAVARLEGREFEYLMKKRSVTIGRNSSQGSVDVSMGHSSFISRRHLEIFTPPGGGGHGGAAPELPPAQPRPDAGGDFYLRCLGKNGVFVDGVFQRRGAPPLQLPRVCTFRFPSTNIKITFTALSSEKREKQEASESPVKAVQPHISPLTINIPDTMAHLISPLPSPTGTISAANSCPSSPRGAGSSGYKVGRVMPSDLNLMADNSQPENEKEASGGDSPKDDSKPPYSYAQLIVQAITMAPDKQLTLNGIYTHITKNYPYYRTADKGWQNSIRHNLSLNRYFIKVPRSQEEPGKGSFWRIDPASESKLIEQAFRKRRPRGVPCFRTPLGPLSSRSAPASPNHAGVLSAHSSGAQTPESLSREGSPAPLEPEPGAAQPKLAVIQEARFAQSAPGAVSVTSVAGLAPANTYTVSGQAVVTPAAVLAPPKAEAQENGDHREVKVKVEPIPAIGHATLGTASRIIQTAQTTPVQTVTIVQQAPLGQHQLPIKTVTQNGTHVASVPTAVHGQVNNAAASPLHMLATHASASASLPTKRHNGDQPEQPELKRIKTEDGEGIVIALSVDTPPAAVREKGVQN

FOXK2-Flag (Wt) [2] = molecular target: FOXK2-Flag (Wt) (UniProt Q01167); test: co-IP; BEAS-2B cells cotransfected with FOXK2-Flag and FBXO24-V5; Flag beads pull down FOXK2-Flag; immunoprecipitants probed for SCF components by immunoblot (n = 3)

Measured: binding

B1: FBXO24-V5 (protein, UniProt O75426 1-580)
chain: MGEKAVPLLRRRRVKRSCPSCGSELGVEEKRGKGNPISIQLFPPELVEHIISFLPVRDLVALGQTCRYFHEVCDGEGVWRRICRRLSPRLQDQGSGVRPWKRAAILNYTKGLYFQAFGGRRRCLSKSVAPLLAHGYRRFLPTKDHVFILDYVGTLFFLKNALVSTLGQMQWKRACRYVVLCRGAKDFASDPRCDTVYRKYLYVLATREPQEVVGTTSSRACDCVEVYLQSSGQRVFKMTFHHSMTFKQIVLVGQETQRALLLLTEEGKIYSLVVNETQLDQPRSYTVQLALRKVSHYLPHLRVACMTSNQSSTLYVTDQGGVYFEVHTPGVYRDLFGTLQAFDPLDQQMPLALSLPAKILFCALGYNHLGLVDEFGRIFMQGNNRYGQLGTGDKMDRGEPTQVCYLQRPITLWCGLNHSLVLSQSSEFSKELLGCGCGAGGRLPGWPKGSASFVKLQVKVPLCACALCATRECLYILSSHDIEQHAPYRHLPASRVVGTPEPSLGARAPQDPGGMAQACEEYLSQIHSCQTLQDRTEKMKEIVGWMPLMAAQKDFFWEALDMLQRAEGGGGGVGPPAPET
binds: FOXK2-Flag Δ155–203 | FOXK2-Flag (Wt) [1] | FOXK2-Flag Δ428–478 | FOXK2-Flag (Wt) [2]
